From the supplement of paper PMC4862054
Most values lie at the level of the controls, where differences are scatter.

Key:
Test in all cases: normalised response (% of control), CellTox Green; higher = less cell death (100 = DMSO, 0 = benzethonium chloride kill control)
Conditions in all cases: incubation time: 72 h
Hs578T = tested on: Hs578T
Method: (§1)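 DSRT, 72 h incubation, CellTox Green / CellTiter-Glo readout. Signal is normalised to DMSO and benzethonium chloride controls. Value is the normalised response at dose 2.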

MDA-MB-468 = tested on: MDA-MB-468
Method: as §1

CAL-120 = tested on: CAL-120
Method: as §1

CAL-85-1 = tested on: CAL-85-1
Method: as §1

MFM-223 = tested on: MFM-223
Method: as §1

CAL-148 = tested on: CAL-148
Method: as §1

CAL-51 = tested on: CAL-51
Method: as §1

BT-474 = tested on: BT-474
Method: as §1

MCF-10A = tested on: MCF-10A
Method: as §1

MDA-MB-436 = tested on: MDA-MB-436
Method: as §1

BT-549 = tested on: BT-549
Method: as §1

HCC1937 = tested on: HCC1937
Method: as §1

MDA-MB-231 = tested on: MDA-MB-231
Method: as §1

HCC1143 = tested on: HCC1143
Method: as §1

DU-4475 = tested on: DU-4475
Method: as §1

HCC1599 = tested on: HCC1599
Method: as §1

HDQ-P1 = tested on: HDQ-P1
Method: as §1

MDA-MB-453 = tested on: MDA-MB-453
Method: as §1

Row | Structure (SMILES) | normalised response (Hs578T) | normalised response (MDA-MB-468) | normalised response (CAL-120) | normalised response (CAL-85-1) | normalised response (MFM-223) | normalised response (CAL-148) | normalised response (CAL-51) | normalised response (BT-474) | normalised response (MCF-10A) | normalised response (MDA-MB-436) | normalised response (BT-549) | normalised response (HCC1937) | normalised response (MDA-MB-231) | normalised response (HCC1143) | normalised response (DU-4475) | normalised response (HCC1599) | normalised response (HDQ-P1) | normalised response (MDA-MB-453)
1 | CN(C)C[C@@H]1CCn2cc(c3ccccc32)C2=C(C(=O)NC2=O)c2cn(c3ccccc23)CCO1 [Ruboxistaurin] (10 nM) | 107% | 105% | 97.3% | 95.8% | 89.2% | 103% | 81.2% | 102% | 71.1% | 100% | 100% | 98% | 97.5% | 100% | 96.2% | 95.6% | 58% | 96%
3 | Cc1ccc([N+](=O)[O-])cc1S(=O)(=O)N(C)/N=C/c1cnc2ccc(Br)cn12 [PIK-75] (10 nM) | 115% | 81.2% | 100% | 96.8% | 92.8% | 99.1% | 46.1% | 100% | 57.8% | 91% | 89.8% | 82.4% |  | 105% | 98.6% | 91.7% | 110% | 92.5%
4 | Clc1ccc(Nc2nnc(Cc3ccncc3)c3ccccc23)cc1 [Vatalanib] (10 nM) | 121% | 55.5% | 109% | 101% | 99.5% | 101% | 111% | 99% | 106% | 107% | 91.6% | 95.4% | 107% | 127% | 113% | 120% | 71% | 108%
5 | COC(=O)C[C@](O)(CCCC(C)(C)O)C(=O)O[C@@H]1C(OC)=C[C@]23CCCN2CCc2cc4c(cc2[C@H]13)OCO4 [Omacetaxine] (10 nM) | 128% | 98.1% | 103% | 96.1% | 105% | 112% | 114% | 103% | 122% | 106% | 84.8% | 112% | 119% | 116% | 115% | 124% | 110% | 110%
6 | CCC1=C[C@@H]2CN(C1)Cc1c([nH]c3ccccc13)[C@@](C(=O)OC)(c1cc3c(cc1OC)N(C)[C@H]1[C@@](O)(C(=O)OC)[C@H](OC(C)=O)[C@]4(CC)C=CCN5CC[C@]31[C@@H]54)C2 [Vinorelbine] (10 nM) | 123% | 104% | 99% | 99.6% | 56.6% | 109% | 95.3% | 101% | 79.3% |  | 104% | 90.6% | 109% | 72.6% | 93% | 94.4% | 105% | 95.8%
7 | CCCc1cc(C)[nH]c(=O)c1CNC(=O)c1cc(-c2ccnc(N3CCN(C)CC3)c2)cc2c1cnn2C(C)C [GSK343] (10 nM) | 122% | 91.8% | 97.5% | 99.8% | 100% | 76.3% | 74.8% | 100% |  | 60.1% | 103% | 98.5% | 92.3% | 106% | 91.8% | 95.4% | 121% | 90.9%
8 | Cc1c(Cn2c(C)nc3c(C(=O)O)cc(N4CCOCC4)cc32)cccc1C(F)(F)F (10 nM) | 130% | 108% | 103% | 101% | 104% | 103% | 103% | 101% | 99.1% | 75.5% | 109% | 130% | 125% | 120% | 112% | 123% | 120% | 107%
9 | CS(=O)(=O)c1ccc(C2=C(c3ccccc3)C(=O)OC2)cc1 [Rofecoxib] (10 nM) | 124% | 123% | 89.2% | 100% | 91% | 111% | 101% | 104% | 107% | 107% | 105% | 121% | 105% | 97.4% | 100% | 104% | 105% | 
10 | CCCCC/C=C/C=C1/C(=O)C=C[C@@H]1C/C=C\CCCC(=O)O [15D-PGJ2] (0.8 nM) | 131% | 89.3% | 108% | 112% | 106% | 111% | 89% | 105% | 111% | 86.1% | 108% |  | 124% | 102% | 99% | 96.1% | 115% | 103%
11 | N#Cc1ccc(COC[C@H]2O[C@@H](n3c(NCc4ccc(Cl)c(Cl)c4)nc4c(N)ncnc43)[C@H](O)[C@@H]2O)cc1 (10 nM) | 132% | 122% | 108% | 108% | 98.4% | 108% | 94.4% | 102% | 120% | 107% | 113% | 89% | 94.5% | 67.3% | 117% | 121% | 121% | 68.8%

A different layout for part of the listing above.
Row	Structure (SMILES)	normalised response (Hs578T)	normalised response (MDA-MB-468)	normalised response (CAL-120)	normalised response (CAL-85-1)	normalised response (MFM-223)	normalised response (CAL-148)	normalised response (CAL-51)	normalised response (BT-474)	normalised response (MCF-10A)	normalised response (MDA-MB-436)	normalised response (BT-549)	normalised response (HCC1937)	normalised response (MDA-MB-231)	normalised response (HCC1143)	normalised response (DU-4475)	normalised response (HCC1599)	normalised response (HDQ-P1)	normalised response (MDA-MB-453)
4	Clc1ccc(Nc2nnc(Cc3ccncc3)c3ccccc23)cc1 [Vatalanib] (10 nM)	121%	55.5%	109%	101%	99.5%	101%	111%	99%	106%	107%	91.6%	95.4%	107%	127%	113%	120%	71%	108%
5	COC(=O)C[C@](O)(CCCC(C)(C)O)C(=O)O[C@@H]1C(OC)=C[C@]23CCCN2CCc2cc4c(cc2[C@H]13)OCO4 [Omacetaxine] (10 nM)	128%	98.1%	103%	96.1%	105%	112%	114%	103%	122%	106%	84.8%	112%	119%	116%	115%	124%	110%	110%
